From the supplement of paper PMC10338343 come the findings set out here.

± gives the standard deviation. This is a selection; strong and weak results do not stand in their true shares. The uncertainty is large for many entries.

One experiment deals with MILI (PIWIL2) piRISC loaded with L1MC piRNA (26 nt). In words: pre-steady-state target cleavage rate (min^-1); MIWI and MILI are mouse PIWI proteins and EfPiwi is from a freshwater sponge; tags in brackets are library labels; higher = faster piRNA-guided slicing of the target. The note with it: guide: L1MC piRNA 5'p-UAACUAAAUACUAUGCAAGCUGUAGG; auxiliary factor: 500 nM mouse GTSF1. The method, then:
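Cleave-'n-Seq: a library of target RNAs (target site embedded in constant flanks, ACAGCATTCCGCGTTAGTGATATCCG... 5' flank; DNA-blocked outside the site) at 0.1 nM was incubated with 1 nM active mouse MILI or MIWI piRISC (synthetic 5'-monophosphorylated piRNA guide) with or without 500 nM mouse GTSF1 at 33 °C for 1 min to 16 h. Uncleaved targets were sequenced and normalised to non-target controls, and the pooled three trials were fitted to a burst-and-steady-state model to give the pre-steady-state cleavage rate (min^-1; k3 is constrained to at most 1e-4). Sequence is the target site only; target names encode pairing extent (gX:gY) and contiguous / 1-mismatch / 2-mismatch / bulge geometry. Fits with R² ≤ 0 are excluded.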
UCCUGCUACAGCUUGCAUAGUAAUUACAAA: the “pre-steady-state target cleavage rate” value was found to be 0.0901 ± 0.029. In the case of UCCUGGUACAGCUUGCAUUGUAUUUAGUAA, the “pre-steady-state target cleavage rate” value amounted to 0.112 ± 0.024. Same read-out and setting: for UCCUGGAUGUGCUUGCAUUCUAUUUAGUAA the value was 0.00199 ± 0.0058; for UCCUGGUACAGCAUGCAUAGUAUUUACAAA, 0.127 ± 0.033. On the same count and under the same terms, to UCCUGGAACAGCUAGCAUAGUAUUAAGUUA belongs 0.192 ± 0.015. Still for that read-out and setting: to UCCUGGAUGUCGAACCAUAGUAUUUAGAUA belongs 0.000279 ± 0.021; to UCCUGGAUCAGCUUGCAUACAUUUUUCAAA, 0.000822 ± 0.011.

In the case of UCCUGGUACAGCUUGCAAAGUAUUUUCAAA, the “pre-steady-state target cleavage rate” value is 0.0283 ± 0.012. Consider UCCUGGAUGAGCUACCAUAGUAUUUAGUAA, for which the “pre-steady-state target cleavage rate” value turned out to be 0.1 ± 0.018. Same read-out and setting: to UCCUGGAUGUCCUUGCAAAGUAUUUAGAUA belongs 0.0324 ± 0.012; to UCCUCCUACAGCUUGCAUAGUAUUAAGUAA, 0.17 ± 0.037. On to UCCUGGAUGUGCUUGCAUAGUAUUUGGUUA, for which the “pre-steady-state target cleavage rate” value stood at 0.131 ± 0.013.

In the case of UCCUGGAUCAGCUUGCAAUAGUAUUUAGUUA, the “pre-steady-state target cleavage rate” value stood at 0.00703 ± 0.0039.

Staying with this experiment, now noted: guide: L1MC piRNA 5'p-UAACUAAAUACUAUGCAAGCUGUAGG; auxiliary factor: none (no GTSF1).
Regarding UCCUGCUACAGCUUGCAUAGUAAUUACAAA, the “pre-steady-state target cleavage rate” value came out at 0.000322 ± 0.012.

Take UCCUGGAUGUGCUUCCAUAGAAUUUAGUUA: the “pre-steady-state target cleavage rate” value came out at 0.000816 ± 0.0069. On to UCCUGGAUGUCGAAGCAUAGUAUUUACGUUA, for which the “pre-steady-state target cleavage rate” value amounted to 0.00145 ± 0.0041. Same read-out and setting: for UCCUGGUACACGUUGCAUAGUAUUUAGAAA the value was 0.00187 ± 0.0047.

Turning to UCCUGGUACAGCUUGCAUAGAAUUAAGUUA, the “pre-steady-state target cleavage rate” value turned out to be 0.00194 ± 0.0045. Same read-out and setting: for UCCUGGUACAGCUUGCAUUGUAUUUAGUAA the value was 0.00248 ± 0.0052; for UCCUGGAUGUGCUUGCAUUCUAUUUAGUAA, 0.00073 ± 0.0073; for UCCUGGUACAGCAUGCAUAGUAUUUACAAA, 0.00126 ± 0.005. Turning to UCCUGGAUGUCGAACGUUAGUAUGUAGUUA, the “pre-steady-state target cleavage rate” value amounted to 0.000169 ± 0.028.

As to UCCUCCUACAGCUUGCAUAGCUAUUUAGUUA, the “pre-steady-state target cleavage rate” value was found to be 0.00147 ± 0.0047. On the same count and under the same terms, to UCCUCCUACACCUUGCAUAGUUUUUAGUUA belongs 0.00249 ± 0.0031; to UCCUGGAACAGCUAGCAUAGUAUUAAGUUA, 0.00356 ± 0.0025; to UCCUGGAUGUCGAACCAUAGUAUUUAGAUA, 0.000189 ± 0.018.

Regarding UCCUGGAUCAGCUUGCAUACAUUUUUCAAA, the “pre-steady-state target cleavage rate” value came out at 0.000302 ± 0.015.

With UCCUGGUACAGCUUGCAAAGUAUUUUCAAA, the “pre-steady-state target cleavage rate” value turned out to be 0.00161 ± 0.0049. On the same count and under the same terms, to UCCUGGAUGAGCUACCAUAGUAUUUAGUAA belongs 0.00158 ± 0.005; to UCCUCCUAGAGCUUGCAUAGUAUUUAGAAA, 0.000945 ± 0.0067; to “UCCUGGAUGUCGAACGUAAGUAUUUAGUUA [g2:g12:cont:t1A]”, 0.000147 ± 0.023. As for UCCUGGAUGUCCUUGCAAAGUAUUUAGAUA, the “pre-steady-state target cleavage rate” value was found to be 0.00187 ± 0.0031. Still for that read-out and setting: for UCCUGGUACAGCUUGCAUAGUUUUUUGUUA the value was 0.00158 ± 0.0057.

Turning to UCCUCCUACAGCUUGCAUAGUAUUAAGUAA, the “pre-steady-state target cleavage rate” value came out at 0.00176 ± 0.0038. On to UCCUGGAUGUGCUUGCAUAGUAUUUAGAAA, for which the “pre-steady-state target cleavage rate” value came to 0.00114 ± 0.0054. For UCCUGGAUGUGCUUGCAUAGUAUUUGGUUA, the “pre-steady-state target cleavage rate” value stood at 0.01 ± 0.0034.

Regarding UCCUGGAUCAGCUUGCAAUAGUAUUUAGUUA, the “pre-steady-state target cleavage rate” value is 0.00119 ± 0.0063.

For the sequence UCCUGCUACAGCUUGCAUAGUAUAAUCAAA, the “pre-steady-state target cleavage rate” value was 0.0012 ± 0.0053. Take UCCUGGAUCAGCUUGCAUGAGUAUUUAGUUA: the “pre-steady-state target cleavage rate” value was 0.00134 ± 0.0051.

On to “UCCUGGAUGUCGAACGUAAGUAUUUAGUUG [g2:g12:cont:t1G]”, for which the “pre-steady-state target cleavage rate” value amounted to 0.000273 ± 0.015.
